The supplement of paper PMC10338343
± gives the standard deviation. Some of the results follow. Many of these values have a large error.

The sequences below were run on EfPiwi piRISC loaded with L1MC piRNA (26 nt) (assay: pre-steady-state target cleavage rate (min^-1); guide: L1MC piRNA 5'p-UAACUAAAUACUAUGCAAGCUGUAGG; MIWI and MILI are mouse PIWI proteins and EfPiwi is from a freshwater sponge; tags in brackets are library labels; higher = faster piRNA-guided slicing of the target). Details: auxiliary factor: 500 nM Ephydatia muelleri Gtsf1.
Description: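 Cleave-'n-Seq: a library of target RNAs (target site in constant flanks) at […] was incubated with 1 nM active freshwater sponge Ephydatia fluviatilis Piwi piRISC (synthetic 5'-monophosphorylated piRNA guide) with or without 500 nM EmGtsf1 at 33 °C for 1 min to 16 h. Uncleaved targets were sequenced and the pooled three trials fitted to a burst-and-steady-state model to give the pre-steady-state cleavage rate (min^-1). Sequence is the target site only. Fits with R² ≤ 0 are excluded.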

Row | Sequence | pre-steady-state target cleavage rate
1 | UCCUGGAUGAGCUUGCAUAGUUUUUACUUA | 0.000551 ± 0.013
2 | UCCUGGAACAGCUUGCAAAGUAUUUUCAAA | 0.00167 ± 0.0024
3 | UCCUGCUACAGCUAGCAUUGUAUUUAGUUA | 0.00762 ± 0.0028
4 | UCCUGCUACAGCUUGCAUAGUAAAAUCAAA | 0.00286 ± 0.0033
5 | UCCUGGAAGAGCUAGCAUAGUAUUUAGUUA | 0.00727 ± 0.0022
6 | UCCUGGAACAGCUUGCAUAGUAAAAUCAAA | 0.00241 ± 0.0036
7 | UCCUGGUACAGCUUGGAUAGUAUUUACUUA | 0.000749 ± 0.0047
8 | UCCUGGUACAGCUUGCAUAGUAUUCUAGUUA | 0.0044 ± 0.003
9 | UCCUGGUACAGCUAGCAUAGUAUAUAGUUA | 0.00193 ± 0.0026
10 | UCCUGGAUGAGCUUGCAUAGUUUUUAGUAA | 0.00121 ± 0.0053
11 | UCCUGCUACAGCUUGCAUAGUAGUUAGUUA | 0.00461 ± 0.0015
12 | UCCUGGAUGUCGAAGCAUAGUUUUUAGAUA | 0.000285 ± 0.01
13 | UCCUGGAUGUGCUAGCAUAGUAUUUAGUAA | 0.00107 ± 0.0056
14 | UCCUGCUACAGCUUGCAUACUAUUUUCAAA | 0.00206 ± 0.0031
15 | UCCUGGAUCAGUUUGCAUAGUAUUUAGUUA | 0.128 ± 0.021
16 | UCCUGGAUCAGCUUGCAUAGUUAAUAGAAA | 0.000577 ± 0.0061
17 | UCCUGGAUGUCGUUGCAUAGUCAUUUAGUUA | 0.000339 ± 0.011
18 | UCCUGGUACAGCUUGCAUAGUAUAUAGAAA | 0.002 ± 0.0032
19 | UCCUGGAUGAGCUAGCAUAGUAUUUAGAUA | 0.00406 ± 0.002
20 | UCCUGGAUCAGCUUCCAUAGUAUUUAGUUA | 0.00321 ± 0.0017
21 | UCCUGGAACAGCUUGCUUAGUAUUUACAAA | 0.00134 ± 0.0041
22 | UCCUGCUACUCCUUGCAUAGUAUUUAGUAA | 0.00443 ± 0.003
23 | UCCUGGAUGUGCUUGCAUACUAUUAAGUUA | 0.00132 ± 0.0027
24 | UCCUGGUACUGCUUGCAUAGUAUUAAGUUA | 0.00169 ± 0.0032
25 | UCCUGCUACAGCUUGCAUAUGUAUUUAGUUA | 0.00294 ± 0.0023

Same assay, conditions: auxiliary factor: none (no Gtsf1)

Row | Sequence | pre-steady-state target cleavage rate
26 | UCCUGGAACAGCUUGCAAAGUAUUUUCAAA | 0.000176 ± 0.036
27 | UCCUGCUACAGCUAGCAUUGUAUUUAGUUA | 0.000993 ± 0.0062
28 | UCCUGGAAGAGCUAGCAUAGUAUUUAGUUA | 0.000927 ± 0.012
29 | UCCUGGUACAGCUUGGAUAGUAUUUACUUA | 0.000338 ± 0.02
30 | UCCUGGUACAGCUUGCAUAGUAUUCUAGUUA | 0.000329 ± 0.042
31 | UCCUGGAUGAGCUUGCAUAGUUUUUAGUAA | 0.000536 ± 0.019
32 | UCCUGGAUGUCGAAGCAUAGUUUUUAGAUA | < 0.0001
33 | UCCUGCUACAGCUUGCAUACUAUUUUCAAA | 0.000252 ± 0.021
34 | UCCUGGAUCAGCUUGCAUAGUUAAUAGAAA | 0.000279 ± 0.023
35 | UCCUGGAUGAGCUAGCAUAGUAUUUAGAUA | 0.00029 ± 0.029
36 | UCCUGGAUCAGCUUCCAUAGUAUUUAGUUA | 0.000183 ± 0.028
37 | UCCUGGAACAGCUUGCUUAGUAUUUACAAA | 0.000501 ± 0.013
38 | UCCUGGAUGUGCUUGCAUACUAUUAAGUUA | 0.000478 ± 0.013
39 | UCCUGGUACUGCUUGCAUAGUAUUAAGUUA | 0.000867 ± 0.0095
40 | UCCUGCUACAGCUUGCAUAUGUAUUUAGUUA | < 0.0001
